These are yes or no findings as the source states them, for the method shown. In cells and extracts the contact can be indirect. Some results given as binding are weak or reduced against the parent protein; the word gives no strength. For part of these data: Tags and fused reporters may be left off the sequences shown.
What was measured:
[1] = molecular target: ephrinB2 (mouse (endogenous in primary hippocampal neurons)) (UniProt P52800); test: proximity ligation; cultured wild type hippocampal neurons 14 DIV, with or without VEGF for 30 min; ephrinB2 detected with pre-clustered EphB4-Fc, VEGFR2 with goat anti-VEGFR2 antibody (AF644); human IgG Fc fragment as negative control
[2] = molecular target: ephrinB2 (mouse (endogenous in primary hippocampal neurons)) (UniProt P52800); test: co-IP; lysate of primary wild type hippocampal neurons 14 DIV; ephrinB2 pulled down with beads coupled with EphB4-Fc, Fc fragment as control; western blots with anti-VEGFR2 and anti-ephrinB2; lysis in 50 mM Tris/HCl pH 7.5, 1% Triton X-100, 150 mM NaCl, 4°C
[3] = molecular target: T1, Recombinant mouse EphB4-Fc chimera (mouse) (UniProt P54761); test: pull-down; EphB4-Fc coupled to beads, incubated with lysate of primary wild type hippocampal neurons 14 DIV; Fc fragment as control; western blot with anti-ephrinB2; only the target purified
T1 sequence: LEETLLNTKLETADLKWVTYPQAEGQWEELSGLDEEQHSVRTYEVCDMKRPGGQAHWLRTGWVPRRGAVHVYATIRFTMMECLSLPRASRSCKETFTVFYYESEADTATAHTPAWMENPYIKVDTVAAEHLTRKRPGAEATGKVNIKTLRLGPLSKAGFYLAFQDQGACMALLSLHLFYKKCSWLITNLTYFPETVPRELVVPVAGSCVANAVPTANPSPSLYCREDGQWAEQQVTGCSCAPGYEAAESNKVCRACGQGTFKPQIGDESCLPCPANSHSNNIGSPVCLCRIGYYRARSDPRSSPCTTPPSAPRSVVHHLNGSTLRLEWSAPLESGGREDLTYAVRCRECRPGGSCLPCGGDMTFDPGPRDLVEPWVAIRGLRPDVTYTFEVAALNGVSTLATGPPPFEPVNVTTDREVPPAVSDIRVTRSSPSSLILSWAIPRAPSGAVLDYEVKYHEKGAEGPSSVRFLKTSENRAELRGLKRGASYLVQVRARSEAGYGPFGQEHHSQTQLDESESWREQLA

Chains of the proteins cited; added tags and fusions are not shown. Residues count along the entry.
UniProt P52800, residues 29-336: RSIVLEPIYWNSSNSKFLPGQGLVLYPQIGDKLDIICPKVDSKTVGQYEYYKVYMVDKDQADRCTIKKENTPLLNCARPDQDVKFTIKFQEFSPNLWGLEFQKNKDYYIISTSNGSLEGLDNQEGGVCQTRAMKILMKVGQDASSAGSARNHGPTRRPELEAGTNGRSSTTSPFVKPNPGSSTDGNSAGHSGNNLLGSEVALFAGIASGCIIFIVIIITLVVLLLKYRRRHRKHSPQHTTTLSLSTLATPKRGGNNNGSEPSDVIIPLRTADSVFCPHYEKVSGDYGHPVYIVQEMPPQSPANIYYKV
UniProt P35918, residues 20-1345: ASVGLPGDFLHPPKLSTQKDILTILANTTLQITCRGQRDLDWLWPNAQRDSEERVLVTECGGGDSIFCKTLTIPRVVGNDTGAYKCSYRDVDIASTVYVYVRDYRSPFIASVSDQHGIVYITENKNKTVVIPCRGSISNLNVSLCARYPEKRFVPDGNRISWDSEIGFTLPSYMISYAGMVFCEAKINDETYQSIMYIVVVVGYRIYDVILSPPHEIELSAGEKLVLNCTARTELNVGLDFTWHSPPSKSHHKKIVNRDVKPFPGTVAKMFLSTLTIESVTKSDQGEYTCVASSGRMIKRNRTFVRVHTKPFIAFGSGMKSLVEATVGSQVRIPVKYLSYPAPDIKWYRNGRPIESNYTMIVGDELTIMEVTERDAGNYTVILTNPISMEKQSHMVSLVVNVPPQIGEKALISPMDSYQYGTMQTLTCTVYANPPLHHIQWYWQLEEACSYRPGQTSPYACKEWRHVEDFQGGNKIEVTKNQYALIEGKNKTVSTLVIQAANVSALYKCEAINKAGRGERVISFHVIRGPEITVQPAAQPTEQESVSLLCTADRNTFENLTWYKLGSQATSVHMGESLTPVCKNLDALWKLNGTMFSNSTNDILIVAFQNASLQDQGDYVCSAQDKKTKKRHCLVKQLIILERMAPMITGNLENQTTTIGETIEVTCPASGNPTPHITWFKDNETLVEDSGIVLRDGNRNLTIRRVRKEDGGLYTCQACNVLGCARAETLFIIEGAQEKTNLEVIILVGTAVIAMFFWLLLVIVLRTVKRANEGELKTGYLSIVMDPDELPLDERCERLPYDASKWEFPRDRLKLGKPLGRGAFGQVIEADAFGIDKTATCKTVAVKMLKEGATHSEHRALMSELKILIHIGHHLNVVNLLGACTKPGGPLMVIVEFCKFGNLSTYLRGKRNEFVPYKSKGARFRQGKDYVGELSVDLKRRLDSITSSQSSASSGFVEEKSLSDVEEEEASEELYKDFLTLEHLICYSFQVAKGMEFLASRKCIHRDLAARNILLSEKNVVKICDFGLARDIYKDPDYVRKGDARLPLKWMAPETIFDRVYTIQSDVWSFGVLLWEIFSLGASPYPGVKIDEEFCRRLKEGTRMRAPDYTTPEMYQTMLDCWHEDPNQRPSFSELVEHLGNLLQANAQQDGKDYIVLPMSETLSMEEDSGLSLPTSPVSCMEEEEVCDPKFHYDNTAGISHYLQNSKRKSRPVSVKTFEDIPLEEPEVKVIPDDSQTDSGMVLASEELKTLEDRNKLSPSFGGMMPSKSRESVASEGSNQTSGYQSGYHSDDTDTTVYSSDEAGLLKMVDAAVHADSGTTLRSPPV

For “VEGFR2 (from UniProt P35918 20-1345) (receptor)”, the binding [1] was “binds” and the binding [2] was “binds”.
For “ephrinB2 (from UniProt P52800 29-336) (ligand)”, the binding [3] was “binds”.
